Record: PubChem BioAssay AID1259281 (Sanger Institute, 2017)

Test: 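Identify essential genes and drug-enhancing knock-downs among kinases and common colorectal mutated genes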 (primary screen)
Cells: human COLO678 colorectal cancer cell line
Reagents: siRNA pool against human genes
Treatment: anchor drugs at fixed doses: BYL719 1 µM, cetuximab 5 µg/ml or trametinib 10 nM; DMSO vehicle for the siRNA-alone arm
Detection: 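Surviving cells scaled to non-targeting siRNA control as replicate means; robust z-score for knock-down alone; synergy scores weigh knock-down with drug against the predicted combined effect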
Direction: robust z-score, siRNA alone: higher = more viable cells; strongly negative means essential
Active means: 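Essential (knock-down alone) when the siRNA-alone robust z-score is below -3; otherwise no change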
Meaning of the calls: active = essential (knock-down alone); inactive = no change
Here is a random part of 794 deposited reagents. 22 of all reagents (2.8%) count as active. 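Calls rest on knock-down alone only; drug synergy scores play no part in them.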 Further read-outs or replicates are left out here. Not given: the amount of reagent, the time to read-out.

ITPKB (inositol-trisphosphate 3-kinase B): robust z-score, siRNA alone = 0.0776; activity call = inactive
RUNX1 (RUNX family transcription factor 1): robust z-score, siRNA alone = 0.473; activity call = inactive
PRKCG (protein kinase C gamma): robust z-score, siRNA alone = 0.473; activity call = inactive
MECOM (MDS1 and EVI1 complex locus): robust z-score, siRNA alone = 0.473; activity call = inactive
HUS1 (HUS1 checkpoint clamp component): robust z-score, siRNA alone = 0.473; activity call = inactive
CIT (citron rho-interacting serine/threonine kinase): robust z-score, siRNA alone = -0.945; activity call = inactive
CAMK1G (calcium/calmodulin dependent protein kinase IG): robust z-score, siRNA alone = 0.473; activity call = inactive
BRWD1 (bromodomain and WD repeat domain containing 1): robust z-score, siRNA alone = -0.211; activity call = inactive
CAMK1 (calcium/calmodulin dependent protein kinase I): robust z-score, siRNA alone = 0.473; activity call = inactive
BMPR1A (bone morphogenetic protein receptor type 1A): robust z-score, siRNA alone = 0.473; activity call = inactive
GUCY2EP (guanylate cyclase 2E, pseudogene): robust z-score, siRNA alone = 0.473; activity call = inactive
UCKL1 (uridine-cytidine kinase 1 like 1): robust z-score, siRNA alone = 0.116; activity call = inactive
NME1 (NME/NM23 nucleoside diphosphate kinase 1): robust z-score, siRNA alone = 0.473; activity call = inactive
SHPK (sedoheptulokinase): robust z-score, siRNA alone = 0.473; activity call = inactive
MAPK3 (mitogen-activated protein kinase 3): robust z-score, siRNA alone = -0.206; activity call = inactive

Reformatted: 4 of the entries above
gene knocked down | robust z-score, siRNA alone | activity call
RUNX1 (RUNX family transcription factor 1) | 0.473 | inactive
PRKCG (protein kinase C gamma) | 0.473 | inactive
MECOM (MDS1 and EVI1 complex locus) | 0.473 | inactive
HUS1 (HUS1 checkpoint clamp component) | 0.473 | inactive

The list goes on:
RIPK3 (receptor interacting serine/threonine kinase 3): robust z-score, siRNA alone = -0.29; activity call = inactive
DIS3 (DIS3 exosome endoribonuclease and 3'-5' exoribonuclease): robust z-score, siRNA alone = 0.473; activity call = inactive
GOLGA5 (golgin A5): robust z-score, siRNA alone = 0.224; activity call = inactive
PRKAA1 (protein kinase AMP-activated catalytic subunit alpha 1): robust z-score, siRNA alone = 0.473; activity call = inactive
ROCK1 (Rho associated coiled-coil containing protein kinase 1): robust z-score, siRNA alone = 0.473; activity call = inactive
TRIB3 (tribbles pseudokinase 3): robust z-score, siRNA alone = 0.473; activity call = inactive
MAPK12 (mitogen-activated protein kinase 12): robust z-score, siRNA alone = 0.473; activity call = inactive
BTK (Bruton tyrosine kinase): robust z-score, siRNA alone = 0.473; activity call = inactive
AK3 (adenylate kinase 3): robust z-score, siRNA alone = 0.351; activity call = inactive
OXSR1 (oxidative stress responsive kinase 1): robust z-score, siRNA alone = 0.473; activity call = inactive
IP6K2 (inositol hexakisphosphate kinase 2): robust z-score, siRNA alone = 0.473; activity call = inactive
MAP3K9 (mitogen-activated protein kinase kinase kinase 9): robust z-score, siRNA alone = -0.463; activity call = inactive
PAPSS2 (3'-phosphoadenosine 5'-phosphosulfate synthase 2): robust z-score, siRNA alone = 0.473; activity call = inactive
